This is an account of results in patent US20220026420A1, “MOLECULES AND METHODS FOR IMPROVED IMMUNODETECTION OF SMALL MOLECULES SUCH AS HISTAMINE” (PRESIDENT AND FELLOWS OF HARVARD COLLEGE, priority 2018, published 2022).

The test system of data set [1] is anti-histamine antibody. Nature of the data set: 5-minute electrochemical assay in spiked human plasma samples. In kind it is binding. The source says:
The Immuno-assay developed on the ELISA plates using PEG-dual Histidine was translated to an electrochemical platform to develop a biosensor for free histamine detection in human plasma samples.

Data set [2] has as its system anti-histamine antibody. Nature of the data set: Competitive histamine ELISA with PEG linkers on streptavidin plates, anti-IgG HRP detection. The note with it: 5 min incubation of anti-histamine antibody, FIGS. 17A, 17B. In kind it is binding. Here is the method: To identify an antibody that recognizes free histamine with improved (lower) binding affinities, we used the PEG-mono-histidine linker (Structure 1) as a target with antibodies that we previously screened with BSA-histamine, i.e., the antibodies listed in FIG. 3A. […] The monovalent histidine linker (25 μM) 86 was added for 1 hour, and then 5 μg ml^−1 anti-histamine antibody was incubated with different concentrations of soluble histamine for 1 hour at room temperature on a shaker 88. Finally, anti-IgG labelled HRP 810 was used to detect the bound antibodies.
The monovalent histidine linker (25 μM) 86 was added for 1 hour, and then 5 μg ml^−1 anti-histamine antibody was incubated with different concentrations of soluble histamine for 1 hour at room temperature on a shaker 88. Finally, anti-IgG labelled HRP 810 was used to detect the bound antibodies.
Histamine detection assay could be performed in two formats. The first format includes the immobilization of histamine conjugates to the solid support while the second format includes the immobilization of anti-histamine antibody on the solid support. For the immobilization of histamine conjugates the immobilization sample was prepared in 0.2 M carbonate-bicarbonate buffer (pH 9.4). Immobilisation samples herein refers to BSA-histamine, Streptavidin, and not limited to BSA-Histidine Samples. […]
(In general: In an ELISA, binding on a coated surface is turned into a signal by an enzyme label.)

On to `NC(=O)C(CCCCNC(=O)C(CCCCNC(=O)C(N)Cc1c[nH]cn1)NC(=O)C(N)Cc1c[nH]cn1)NC(=O)CCOCCOCCOCCOCCNC(=O)CCCCC1SC[C@H]2NC(=O)N[C@@H]12` (stereo partly shown) [PEG-dual Histidine, Biotin-PEG-Dual-Histidine], for which the results for the current with anti-histamine antibody [1] (0 nM histamine) and with anti-histamine antibody [1] (3.75 nM histamine) were 439 nA and 278 nA, respectively.

Consider `NC(=O)C(CCCCNC(=O)C(CCCCNC(=O)C(CCCCNC(=O)C(CCCCNC(=O)C(N)Cc1c[nH]cn1)NC(=O)C(N)Cc1c[nH]cn1)NC(=O)C(CCCCNC(=O)C(N)Cc1c[nH]cn1)NC(=O)C(N)Cc1c[nH]cn1)NC(=O)C(CCCCNC(=O)N(CCCCNC(=O)C(N)Cc1c[nH]cn1)NC(=O)C(N)Cc1c[nH]cn1)NC(=O)C(CCCCNC(=O)C(N)Cc1c[nH]cn1)NC(=O)C(N)Cc1c[nH]cn1)NC(=O)CCOCCOCCOCCOCCNC(=O)CCCCC1SC[C@H]2NC(=O)N[C@@H]12` (stereo partly shown) [Structure 4, Biotin-PEG-Octo-Histidine], for which the “deviation from the trend line in detecting free histamine” value in the data set on anti-histamine antibody [2] is given as “higher standard deviation from the trend line”.

For the molecule Biotin-PEG-Four Histidine [Structure 3], the “deviation from the trend line in detecting free histamine” value with anti-histamine antibody [2] is reported as “higher standard deviation from the trend line”.
